No constants are given. Whether binding was seen depends on the method and setting. Some binding calls cover weakened binding; strength is not graded here.
Tests used:
[1] = target: T1, recombinant mouse NSP4 (form not stated) (mouse, UniProt Q14B24 40-284, limits assumed); assay: BLI; antibody on sensor, 50 nM mouse NSP4 preincubated with buffer or Fab 5-1
T1 construct: also called mNSP4; soluble mNSP4
T1 sequence (looked up): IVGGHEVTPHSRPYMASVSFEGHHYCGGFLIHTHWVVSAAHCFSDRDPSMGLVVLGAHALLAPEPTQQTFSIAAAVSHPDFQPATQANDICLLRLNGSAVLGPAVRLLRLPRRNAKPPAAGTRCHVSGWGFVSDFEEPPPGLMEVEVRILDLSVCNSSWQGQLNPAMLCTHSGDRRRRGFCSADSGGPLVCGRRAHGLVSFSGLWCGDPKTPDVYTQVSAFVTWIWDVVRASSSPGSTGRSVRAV

[2] = target: T1, recombinant mouse NSP4 (form not stated); assay: biolayer interferometry; antibody on sensor, 50 nM mouse NSP4 preincubated with Fab 5-1
mouse zymogen NSP4 (mZ) [3] = target: T2, mouse zymogen NSP4 (mZ) (mouse, UniProt Q14B24 36-284); assay: competition phage ELISA (phage IC50); phage clone preincubated with soluble mZ-NSP4, unbound phage caught on coated NSP4, A450 [Cont.]
T2 construct: mature; Expressed in CHO cells; also called mZ-NSP4; mZ (NSP4); not shown: N-terminal FLAG tag cleavable by enteropeptidase (cleavage after Asp-Asp-Asp-Asp-Lys)
T2 sequence (looked up): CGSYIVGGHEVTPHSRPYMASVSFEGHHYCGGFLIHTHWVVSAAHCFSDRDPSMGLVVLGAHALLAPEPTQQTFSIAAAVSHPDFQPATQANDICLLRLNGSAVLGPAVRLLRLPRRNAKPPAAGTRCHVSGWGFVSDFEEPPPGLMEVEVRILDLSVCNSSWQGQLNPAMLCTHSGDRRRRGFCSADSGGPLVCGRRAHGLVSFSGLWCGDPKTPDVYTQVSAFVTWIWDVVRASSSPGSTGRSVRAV

[4] = target: T1, recombinant mouse NSP4 (form not stated); assay: BLI; antibody on sensor, 50 nM mouse NSP4 preincubated with buffer or 10 ug/ml heparin sulfate
mouse zymogen NSP4 (mZ) [5] = target: T2, mouse zymogen NSP4 (mZ); assay: BLI; IgG1 on anti-human Fc sensor, NSP4 variant in solution, concentration not on sheet
mouse zymogen NSP4 (mZ) [6] = target: T2, mouse zymogen NSP4 (mZ); assay: biolayer interferometry; human IgG1
[7] = target: T1, recombinant mouse NSP4 (form not stated); assay: biolayer interferometry; Fab 5-1 preincubated with mouse NSP4 as competitor
[8] = target: T3, recombinant human NSP4 (form not stated) (human) (UniProt Q6UWY2); assay: BLI; Ab 3-5 on sensor, human NSP4 with Fab 5-1
T3 sequence (looked up): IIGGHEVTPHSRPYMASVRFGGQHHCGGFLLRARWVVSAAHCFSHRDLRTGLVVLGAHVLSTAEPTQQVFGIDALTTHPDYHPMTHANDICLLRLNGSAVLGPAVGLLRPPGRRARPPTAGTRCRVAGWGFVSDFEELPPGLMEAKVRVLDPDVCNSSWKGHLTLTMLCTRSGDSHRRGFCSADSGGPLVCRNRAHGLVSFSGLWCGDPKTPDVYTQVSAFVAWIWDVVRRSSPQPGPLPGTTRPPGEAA

[9] = target: T1, recombinant mouse NSP4 (form not stated); assay: BLI; Ab 3-2 or Ab 3-5 on sensor, mouse NSP4 preincubated with Fab 5-1
[10] = target: T3, recombinant human NSP4 (form not stated) (human); assay: competition phage ELISA (phage IC50) with soluble hNSP4 competitor, A450
[11] = target: T1, recombinant mouse NSP4 (form not stated); assay: competition phage ELISA (phage IC50) with soluble mNSP4 competitor, A450
[12] = target: T3, recombinant human NSP4 (form not stated) (human); assay: BLI; antibody on sensor, human NSP4 with or without heparin sulfate
[13] = target: T3, recombinant human NSP4 (form not stated) (human); assay: BLI; antibody on sensor, human NSP4 with or without Fab 5-1

Measured: binding

B1: anti-NSP4 antibody 3-2 (antibody, human IgG1, V domains shown)
VH: EVQLVESGGGLVQPGGSLRLSCAASGFTFSDYSISWVRQAPGKGLEWVGEINPAGGATYYADSVKGRFTISADTSKNTAYLQMNSLRAEDTAVYYCARGDFPFWSDAYYVMDYWGQGTLVTVSS
VL: DIQMTQSPSSLSASVGDRVTITCRASQDVSTAVAWYQQKPGKAPKLLIYSASFLYSGVPSRFSGSGSGTDFTLTISSLQPEDFATYYCQQSYTTPPTFGQGTKVEIKR
notes: also called Ab 3-2; clone 3-2
binds: [1] | [2] | mouse zymogen NSP4 (mZ) [3] | [4] | mouse zymogen NSP4 (mZ) [5] | mouse zymogen NSP4 (mZ) [6]

B2: NSP4 antibody 5-1 (Fab format) (Fab, V domains shown)
VH: EVQLVESGGGLVQPGGSLRLSCAASGFTFSGSGIHWVRQAPGKGLEWVAWISPTGGNTYYADSVKGRFTISADTSKNTAYLQMNSLRAEDTAVYYCAKSLFHNVAFDYWGQGTLVTVSS
VL: B1 VL
binds: [7] | [8] | [9]

B3: anti-NSP4 antibody 3-5 (antibody, human IgG1, V domains shown)
VH: EVQLVESGGGLVQPGGSLRLSCAASGFTFSDNDISWVRQAPGKGLEWVGSISPDNGDTNYADSVKGRFTISADTSKNTAYLQMNSLRAEDTAVYYCARDDVPAVFTSAMDYWGQGTLVTVSS
VL: B1 VL
notes: also called Ab 3-5; Ab35
not listed: [7] | [8] | [9]
binds: all other assays above

Source: patent US20160215065A1 (Genentech, published 2016)
